The subject of assay [1] is mIMCD3. The experiment in a line: robust z score of cell number vs plate controls; higher = more cells (less cytotoxic). The conditions noted are these: 10 µM, 48 h.
The test system of assay [2] is mIMCD3. The experiment in a line: robust z score of cilia incidence (% cells with single cilium) vs plate controls; higher = more ciliated cells. The conditions noted are these: 10 µM; 48 h; siRNA: siScr.
The subject of assay [3] is mIMCD3. The experiment in a line: robust z score of cilia incidence (% cells with single cilium) vs plate controls; higher = more ciliated cells (rescue of cilia loss). To be noted: 10 µM; 48 h; siRNA: siRpgrip1l.

Where a name gives a salt, the structure may show the parent alone. ± gives the standard deviation of the averaged measurements. The list shows a part of the results. Part of the spread comes from offsets between plates or batches.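 The cells are a mouse kidney inner medullary collecting duct line, silenced either for the ciliary gene Rpgrip1l or with a non-targeting control siRNA.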

In the case of `COc1ccc(C[C@H]2NC[C@H](O)[C@H]2OC(C)=O)cc1` [Anisomycin], the “robust z score of cell number” value is -62.1 ± 53 in the assay on mIMCD3 [1] (siRNA: siRpgrip1l) and -51.3 ± 2.2 in the assay on mIMCD3 [1] (siRNA: siScr). For the same compound, the “robust z score of cilia incidence” value in the assay on mIMCD3 [2] was -75.9 ± 6.8; in the assay on mIMCD3 [3], -42.3 ± 6.6.
In the case of `CC(C)(c1ccc(OCC2CO2)cc1)c1ccc(OCC2CO2)cc1` (configuration not stated), the “robust z score of cell number” value is -45.5 ± 40 in the assay on mIMCD3 [1] (siRNA: siRpgrip1l) and -39.5 ± 3.2 with mIMCD3 [1] (siRNA: siScr). Also, the “robust z score of cilia incidence” value was -32.6 ± 1.7 in the assay with mIMCD3 [2] and -25.8 ± 3.5 with mIMCD3 [3].
For `CCOC(=O)c1cncn1[C@H](C)c1ccccc1` [Etomidate] the same measures were -23.5 ± 22, 0.96 ± 2.1, 1.82 ± 3.1 and -123 ± 100.
For `NCc1cc(O)no1` [Muscimol] the same measures were 1.35 ± 4.6, 1.35 ± 3.5, 2.86 ± 0.51 and -7.23 ± 2.7.
For `CN(C(=O)Cc1ccccc1)C(CN1CCCC1)c1ccccc1` (configuration not stated) [N-MPPP Hydrochloride] the same measures were -4.35 ± 2.7, -1.32 ± 3.6, 0.336 ± 0.67 and -5.71 ± 1.4.
For the compound `C/C(O)=C(\C#N)C(=O)Nc1cc(Br)ccc1Br`, the “robust z score of cell number” value in the assay with mIMCD3 [1] (siRNA: siRpgrip1l) is -37.4 ± 43; with mIMCD3 [1] (siRNA: siScr) it was -8.08 ± 6.2. Also, the “robust z score of cilia incidence” value is -12.6 ± 19 in the assay with mIMCD3 [2] and -8.49 ± 1.4 with mIMCD3 [3].
On to `C[C@@H]1O[C@@H](O[C@H]2C[C@@H](O)[C@]3(CO)[C@H]4[C@H](O)C[C@]5(C)[C@@H](C6=CC(=O)OC6)CC[C@]5(O)[C@@H]4CC[C@]3(O)C2)[C@H](O)[C@H](O)[C@H]1O` [Ouabain], for which the results for the “robust z score of cell number” value in the assay with mIMCD3 [1] (siRNA: siRpgrip1l) and with mIMCD3 [1] (siRNA: siScr) were -7.38 ± 6.2 and -3.46 ± 0.72, respectively. Moreover, the “robust z score of cilia incidence” value with mIMCD3 [2] was -0.559 ± 2.8; with mIMCD3 [3] it was -11.8 ± 2.3.
For `COC(=O)[C@@H](N)CCCNC(=N)N[N+](=O)[O-]` [L-NAME hydrochloride], in that order: 3.79 ± 1.3, 4.78 ± 6.9, -0.131 ± 1.4 and -8.43 ± 8.1.
With `Cc1nnc2ccc(-c3cccc(C(F)(F)F)c3)nn12`, the “robust z score of cell number” value was -3.81 ± 4.4 in the assay with mIMCD3 [1] (siRNA: siRpgrip1l) and -5.22 ± 4.5 in the assay with mIMCD3 [1] (siRNA: siScr). Moreover, the figures for the “robust z score of cilia incidence” value in the assay on mIMCD3 [2] and with mIMCD3 [3] were -1.07 ± 12 and -14.7 ± 2.3, respectively.
For `Cc1nc(N)sc1CCN` [Amthamine dihydrobromide], in that order: -5.18 ± 8.2, 8.48 ± 6.9, 0.464 ± 2.4 and -6.26 ± 7.3.
For `CC(C)NCC(O)c1ccc(N)c(C#N)c1` (configuration not stated) [Cimaterol], in that order: -17.6 ± 22, -1.52 ± 5, 0.119 ± 0.26 and -4.61 ± 0.71.
In the case of `C[C@H]1CCC/C=C/[C@@H]2C[C@H](O)C[C@H]2[C@H](O)/C=C/C(=O)O1` [Brefeldin A], the “robust z score of cell number” value is -307 ± 220 in the assay on mIMCD3 [1] (siRNA: siRpgrip1l) and -40.5 ± 9.6 with mIMCD3 [1] (siRNA: siScr). The “robust z score of cilia incidence” value in the assay with mIMCD3 [2] is -53.5 ± 8.1; with mIMCD3 [3], -29.2 ± 9.1.
For `Clc1ccc(C2=CCCC3CCC2N3)cn1` (configuration not stated) [UB 165 fumarate], in that order: -36 ± 47, 0.00933 ± 0.9, -4.17 ± 1.1 and -8.46 ± 3.7.
In the case of `O=C1NC(=O)c2c1c1c3ccccc3n3c1c1c2c2ccccc2n1[C@H]1CC[C@@H]3O1`, the “robust z score of cell number” value in the assay on mIMCD3 [1] (siRNA: siRpgrip1l) was -29.2 ± 8.7; in the assay on mIMCD3 [1] (siRNA: siScr) it was -117 ± 82. Further, the results for the “robust z score of cilia incidence” value in the assay with mIMCD3 [2] and in the assay on mIMCD3 [3] were -33.6 ± 10 and -37.5 ± 3.2, respectively.
For `S=C(NC1CCCCC1)N1CCC(c2cnc[nH]2)CC1` [Thioperamide], in that order: -7.54 ± 3.8, -15.9 ± 19, -1.17 ± 0.5 and -10.9 ± 4.2.
For `O=C1CN=C(c2cccc(Br)c2)c2oc3ccccc3c2N1` the same measures were -15 ± 15, -0.858 ± 1.3, 0.896 ± 1.3 and -6.63 ± 2.8.
As to `Clc1cccc(SC2CCNCC2)n1` [Anpirtoline hydrochloride], the “robust z score of cell number” value in the assay with mIMCD3 [1] (siRNA: siRpgrip1l) was 2.29 ± 0.52; in the assay on mIMCD3 [1] (siRNA: siScr), -0.782 ± 1.5. Besides, the figures for the “robust z score of cilia incidence” value with mIMCD3 [2] and in the assay on mIMCD3 [3] were -1.56 ± 2.3 and -6.28 ± 1.8, respectively.
For `CCCOc1ccc2[nH]cc(C3=CCNCC3)c2n1` the same measures were -41.6 ± 40, 0.75 ± 0.51, -1.49 ± 2.6 and -7.26 ± 0.085.

For the origin of these results see the supplement of paper PMC12009310.
